Article PMC12561918
No constants are given. Whether binding was seen depends on the method and setting. Binding seen in cells or lysates may run through a third protein. Here binding means that the protein was enriched with, or labelled near, the bait; the list need not be complete.

By UniProt entry, the sequences of proteins in these tests, tags left out. Where a name states a change or a piece, a line headed by the entry shows the natural chain unless it says otherwise. Residues count along the entry.
UniProt I6Y4D2, residues 25-241: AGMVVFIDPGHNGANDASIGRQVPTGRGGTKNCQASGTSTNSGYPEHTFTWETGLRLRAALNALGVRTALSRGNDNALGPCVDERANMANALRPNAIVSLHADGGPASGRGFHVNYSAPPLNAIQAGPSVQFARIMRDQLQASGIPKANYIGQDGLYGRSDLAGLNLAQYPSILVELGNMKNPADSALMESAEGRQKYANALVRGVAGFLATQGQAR
UniProt P17844: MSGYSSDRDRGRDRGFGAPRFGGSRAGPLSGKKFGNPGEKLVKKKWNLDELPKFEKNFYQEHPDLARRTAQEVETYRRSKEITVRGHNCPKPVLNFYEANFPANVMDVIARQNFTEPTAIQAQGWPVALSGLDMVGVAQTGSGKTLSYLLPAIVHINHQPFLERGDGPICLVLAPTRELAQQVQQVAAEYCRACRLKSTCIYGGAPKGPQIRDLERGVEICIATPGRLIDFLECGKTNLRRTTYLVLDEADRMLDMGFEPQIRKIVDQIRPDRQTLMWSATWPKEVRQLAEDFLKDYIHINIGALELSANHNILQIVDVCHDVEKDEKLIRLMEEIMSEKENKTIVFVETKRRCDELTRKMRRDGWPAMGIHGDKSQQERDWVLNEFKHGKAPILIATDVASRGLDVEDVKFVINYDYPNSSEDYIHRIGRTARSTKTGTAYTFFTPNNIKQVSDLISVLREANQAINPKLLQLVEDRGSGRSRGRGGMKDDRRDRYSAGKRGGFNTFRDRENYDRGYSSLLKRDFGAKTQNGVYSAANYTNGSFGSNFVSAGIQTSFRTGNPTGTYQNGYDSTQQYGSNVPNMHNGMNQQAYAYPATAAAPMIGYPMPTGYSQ
UniProt P15924: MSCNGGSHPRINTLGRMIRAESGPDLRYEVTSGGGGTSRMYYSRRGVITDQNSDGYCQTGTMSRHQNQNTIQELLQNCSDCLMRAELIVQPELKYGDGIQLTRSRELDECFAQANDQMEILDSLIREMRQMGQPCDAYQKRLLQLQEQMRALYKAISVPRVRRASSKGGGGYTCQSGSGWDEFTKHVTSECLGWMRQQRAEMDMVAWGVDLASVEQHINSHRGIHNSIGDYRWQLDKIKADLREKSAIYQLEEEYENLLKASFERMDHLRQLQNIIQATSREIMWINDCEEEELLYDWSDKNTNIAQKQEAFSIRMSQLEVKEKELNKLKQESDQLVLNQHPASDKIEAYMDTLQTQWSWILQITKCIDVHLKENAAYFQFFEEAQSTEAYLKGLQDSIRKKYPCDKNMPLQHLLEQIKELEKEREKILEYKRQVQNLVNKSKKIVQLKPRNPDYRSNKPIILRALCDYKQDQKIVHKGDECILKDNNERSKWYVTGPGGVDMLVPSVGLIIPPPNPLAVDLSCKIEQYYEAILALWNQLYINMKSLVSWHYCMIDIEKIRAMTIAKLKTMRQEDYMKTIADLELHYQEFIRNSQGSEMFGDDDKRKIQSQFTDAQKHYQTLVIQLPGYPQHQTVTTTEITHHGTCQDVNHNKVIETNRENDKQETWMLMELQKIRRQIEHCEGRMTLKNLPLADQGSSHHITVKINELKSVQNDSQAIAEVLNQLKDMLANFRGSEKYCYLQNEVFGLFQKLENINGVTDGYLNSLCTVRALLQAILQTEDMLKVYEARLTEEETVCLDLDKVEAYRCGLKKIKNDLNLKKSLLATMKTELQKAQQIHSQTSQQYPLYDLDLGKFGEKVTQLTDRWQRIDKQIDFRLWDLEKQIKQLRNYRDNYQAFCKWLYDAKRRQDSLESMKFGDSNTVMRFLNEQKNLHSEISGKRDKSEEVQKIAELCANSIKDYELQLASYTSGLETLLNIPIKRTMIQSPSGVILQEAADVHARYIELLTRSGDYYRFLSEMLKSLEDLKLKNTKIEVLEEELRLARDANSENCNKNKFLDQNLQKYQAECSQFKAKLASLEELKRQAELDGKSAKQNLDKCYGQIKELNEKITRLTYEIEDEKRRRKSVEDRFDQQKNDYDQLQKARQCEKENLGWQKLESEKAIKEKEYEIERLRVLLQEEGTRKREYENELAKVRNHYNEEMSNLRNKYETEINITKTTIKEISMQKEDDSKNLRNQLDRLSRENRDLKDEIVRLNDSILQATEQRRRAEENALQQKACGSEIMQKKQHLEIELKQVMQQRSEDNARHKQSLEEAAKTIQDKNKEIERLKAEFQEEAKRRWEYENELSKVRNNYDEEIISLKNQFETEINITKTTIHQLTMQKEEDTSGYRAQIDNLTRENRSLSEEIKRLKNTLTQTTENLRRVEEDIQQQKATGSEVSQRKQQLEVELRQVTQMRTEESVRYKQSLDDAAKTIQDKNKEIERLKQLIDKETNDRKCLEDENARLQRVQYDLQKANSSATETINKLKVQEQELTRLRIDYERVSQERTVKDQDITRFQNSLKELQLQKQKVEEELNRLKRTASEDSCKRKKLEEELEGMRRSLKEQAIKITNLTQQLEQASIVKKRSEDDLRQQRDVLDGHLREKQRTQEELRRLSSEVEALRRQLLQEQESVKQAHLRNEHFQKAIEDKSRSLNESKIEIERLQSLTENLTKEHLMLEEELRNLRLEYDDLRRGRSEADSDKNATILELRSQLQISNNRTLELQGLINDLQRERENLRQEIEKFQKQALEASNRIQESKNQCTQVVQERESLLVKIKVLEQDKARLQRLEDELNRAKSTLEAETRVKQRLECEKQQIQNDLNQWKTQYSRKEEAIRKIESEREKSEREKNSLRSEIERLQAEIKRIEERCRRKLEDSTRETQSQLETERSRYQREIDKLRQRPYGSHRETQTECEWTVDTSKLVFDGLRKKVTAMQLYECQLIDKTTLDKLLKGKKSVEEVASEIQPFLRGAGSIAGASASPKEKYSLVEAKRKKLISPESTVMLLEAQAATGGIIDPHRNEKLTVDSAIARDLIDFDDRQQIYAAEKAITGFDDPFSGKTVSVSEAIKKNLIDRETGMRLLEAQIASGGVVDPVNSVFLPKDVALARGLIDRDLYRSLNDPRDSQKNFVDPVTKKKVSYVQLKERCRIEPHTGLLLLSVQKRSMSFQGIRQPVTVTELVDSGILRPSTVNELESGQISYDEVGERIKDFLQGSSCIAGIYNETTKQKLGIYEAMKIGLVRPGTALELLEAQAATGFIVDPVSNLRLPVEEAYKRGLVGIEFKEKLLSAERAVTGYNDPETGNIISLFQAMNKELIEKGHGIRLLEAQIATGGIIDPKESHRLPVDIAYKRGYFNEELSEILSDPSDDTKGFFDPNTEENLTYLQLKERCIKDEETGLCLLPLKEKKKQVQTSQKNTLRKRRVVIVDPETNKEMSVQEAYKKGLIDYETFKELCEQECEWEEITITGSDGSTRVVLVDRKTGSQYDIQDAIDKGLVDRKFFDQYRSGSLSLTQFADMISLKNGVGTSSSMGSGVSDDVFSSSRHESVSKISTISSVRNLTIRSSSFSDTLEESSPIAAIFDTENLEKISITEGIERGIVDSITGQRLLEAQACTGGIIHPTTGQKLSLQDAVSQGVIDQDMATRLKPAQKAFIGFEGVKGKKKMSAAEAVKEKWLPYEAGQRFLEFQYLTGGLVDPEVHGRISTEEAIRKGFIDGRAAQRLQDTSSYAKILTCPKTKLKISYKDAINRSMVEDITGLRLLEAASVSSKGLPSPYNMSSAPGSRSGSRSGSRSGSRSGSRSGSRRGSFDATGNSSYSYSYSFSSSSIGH
UniProt P19474: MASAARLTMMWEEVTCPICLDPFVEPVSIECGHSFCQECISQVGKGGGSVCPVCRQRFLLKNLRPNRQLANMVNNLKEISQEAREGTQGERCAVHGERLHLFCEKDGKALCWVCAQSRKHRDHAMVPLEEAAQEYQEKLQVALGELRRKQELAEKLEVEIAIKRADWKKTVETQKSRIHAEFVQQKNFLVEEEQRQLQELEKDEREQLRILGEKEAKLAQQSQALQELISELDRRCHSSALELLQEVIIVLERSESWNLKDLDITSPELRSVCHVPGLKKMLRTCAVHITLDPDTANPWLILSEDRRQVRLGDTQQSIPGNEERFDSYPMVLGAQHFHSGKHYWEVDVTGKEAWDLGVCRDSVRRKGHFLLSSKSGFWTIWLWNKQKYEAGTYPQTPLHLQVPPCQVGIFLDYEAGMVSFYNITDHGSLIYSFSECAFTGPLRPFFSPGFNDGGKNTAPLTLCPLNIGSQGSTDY
UniProt P26599: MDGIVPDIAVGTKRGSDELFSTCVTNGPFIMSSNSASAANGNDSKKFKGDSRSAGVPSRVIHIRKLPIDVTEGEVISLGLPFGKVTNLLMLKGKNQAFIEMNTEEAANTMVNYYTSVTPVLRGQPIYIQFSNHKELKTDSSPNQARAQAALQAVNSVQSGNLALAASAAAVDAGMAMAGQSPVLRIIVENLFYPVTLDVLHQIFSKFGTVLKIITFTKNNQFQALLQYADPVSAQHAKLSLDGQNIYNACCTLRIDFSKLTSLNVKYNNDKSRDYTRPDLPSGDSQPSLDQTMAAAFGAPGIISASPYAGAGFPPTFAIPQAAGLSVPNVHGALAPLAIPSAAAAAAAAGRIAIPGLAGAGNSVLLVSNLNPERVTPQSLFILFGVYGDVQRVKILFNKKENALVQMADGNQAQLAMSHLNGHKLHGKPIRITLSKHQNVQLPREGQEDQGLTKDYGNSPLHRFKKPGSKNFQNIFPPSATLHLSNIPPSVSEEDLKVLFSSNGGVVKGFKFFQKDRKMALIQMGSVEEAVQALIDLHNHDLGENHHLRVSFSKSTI
UniProt Q12905: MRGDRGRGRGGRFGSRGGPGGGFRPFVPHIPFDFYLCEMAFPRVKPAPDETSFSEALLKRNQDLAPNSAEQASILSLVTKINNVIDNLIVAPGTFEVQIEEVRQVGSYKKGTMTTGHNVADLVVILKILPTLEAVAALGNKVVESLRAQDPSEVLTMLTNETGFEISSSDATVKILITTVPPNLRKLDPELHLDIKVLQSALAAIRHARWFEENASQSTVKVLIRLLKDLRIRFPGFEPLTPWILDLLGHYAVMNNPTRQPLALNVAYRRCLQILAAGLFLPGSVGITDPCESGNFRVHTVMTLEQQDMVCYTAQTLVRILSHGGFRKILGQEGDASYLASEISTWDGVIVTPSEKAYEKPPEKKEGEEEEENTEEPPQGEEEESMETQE
UniProt Q08554: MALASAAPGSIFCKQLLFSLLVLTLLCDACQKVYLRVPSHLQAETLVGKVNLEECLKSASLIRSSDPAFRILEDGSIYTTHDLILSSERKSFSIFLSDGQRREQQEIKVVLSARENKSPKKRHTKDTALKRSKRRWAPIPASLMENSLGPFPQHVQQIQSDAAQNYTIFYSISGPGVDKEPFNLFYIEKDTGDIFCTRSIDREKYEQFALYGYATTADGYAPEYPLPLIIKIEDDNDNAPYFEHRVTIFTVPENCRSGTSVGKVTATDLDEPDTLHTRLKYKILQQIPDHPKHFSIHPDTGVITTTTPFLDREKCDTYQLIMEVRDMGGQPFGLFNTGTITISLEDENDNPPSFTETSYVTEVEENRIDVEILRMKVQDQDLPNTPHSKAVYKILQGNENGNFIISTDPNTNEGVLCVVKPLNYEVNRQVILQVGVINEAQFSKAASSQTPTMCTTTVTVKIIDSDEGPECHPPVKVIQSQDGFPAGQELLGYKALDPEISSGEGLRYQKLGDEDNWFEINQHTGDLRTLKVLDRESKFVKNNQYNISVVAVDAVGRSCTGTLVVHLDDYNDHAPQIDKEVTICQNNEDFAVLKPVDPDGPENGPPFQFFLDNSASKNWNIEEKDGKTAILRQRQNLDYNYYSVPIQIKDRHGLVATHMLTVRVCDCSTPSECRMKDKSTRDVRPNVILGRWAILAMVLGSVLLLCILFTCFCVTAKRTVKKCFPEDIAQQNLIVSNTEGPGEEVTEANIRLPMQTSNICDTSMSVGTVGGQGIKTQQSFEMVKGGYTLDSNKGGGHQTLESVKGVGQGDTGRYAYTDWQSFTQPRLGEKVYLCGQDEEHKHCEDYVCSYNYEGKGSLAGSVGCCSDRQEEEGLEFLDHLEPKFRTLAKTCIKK

biological target: Flag-Rv3717 (Mycobacterium tuberculosis Rv3717) expressed in HPAEpiC cells (Mycobacterium tuberculosis) (UniProt I6Y4D2); experiment: affinity purification with mass spectrometry

| Molecule | binding |
| --- | --- |
| Probable ATP-dependent RNA helicase DDX5 (from UniProt P17844 1-614) | binds |
| Desmoplakin (from UniProt P15924 1-2871) | binds |
| E3 ubiquitin ligase TRIM21 (endogenous) (from UniProt P19474 1-475) | binds |
| Polypyrimidine tract-binding protein 1 (from UniProt P26599 1-557) | binds |
| Interleukin enhancer-binding factor 2 (endogenous) (from UniProt Q12905 1-390) | binds |
| Desmocollin-1 (from UniProt Q08554) | binds |
| Heterogeneous nuclear ribonucleoprotein D-like (protein, UniProt O14979 1-420) MEVPPRLSHVPPPLFPSAPATLASRSLSHWRPRPPRQLAPLLPSLAPSSARQGARRAQRHVTAQQPSRLAGGAAIKGGRRRRPDLFRRHFKSSSIQRSAAAAAATRTARQHPPADSSVTMEDMNEYSNIEEFAEGSKINASKNQQDDGKMFIGGLSWDTSKKDLTEYLSRFGEVVDCTIKTDPVTGRSRGFGFVLFKDAASVDKVLELKEHKLDGKLIDPKRAKALKGKEPPKKVFVGGLSPDTSEEQIKEYFGAFGEIENIELPMDTKTNERRGFCFITYTDEEPVKKLLESRYHQIGSGKCEIKVAQPKEVYRQQQQQQKGGRGAAAGGRGGTRGRGRGQGQNWNQGFNNYYDQGYGNYNSAYGGDQNYSGYGGYDYTGYNYGNYGYGQGYADYSGQQSTYGKASRGGGNHQNNYQPY | binds |
| Zyxin (protein, UniProt Q15942 1-572) MAAPRPSPAISVSVSAPAFYAPQKKFGPVVAPKPKVNPFRPGDSEPPPAPGAQRAQMGRVGEIPPPPPEDFPLPPPPLAGDGDDAEGALGGAFPPPPPPIEESFPPAPLEEEIFPSPPPPPEEEGGPEAPIPPPPQPREKVSSIDLEIDSLSSLLDDMTKNDPFKARVSSGYVPPPVATPFSSKSSTKPAAGGTAPLPPWKSPSSSQPLPQVPAPAQSQTQFHVQPQPQPKPQVQLHVQSQTQPVSLANTQPRGPPASSPAPAPKFSPVTPKFTPVASKFSPGAPGGSGSQPNQKLGHPEALSAGTGSPQPPSFTYAQQREKPRVQEKQHPVPPPAQNQNQVRSPGAPGPLTLKEVEELEQLTQQLMQDMEHPQRQNVAVNELCGRCHQPLARAQPAVRALGQLFHIACFTCHQCAQQLQGQQFYSLEGAPYCEGCYTDTLEKCNTCGEPITDRMLRATGKAYHPHCFTCVVCARPLEGTSFIVDQANRPHCVPDYHKQYAPRCSVCSEPIMPEPGRDETVRVVALDKNFHMKCYKCEDCGKPLSIEADDNGCFPLDGHVLCRKCHTARAQT | binds |
| Junction plakoglobin (protein, UniProt P14923 1-745) MEVMNLMEQPIKVTEWQQTYTYDSGIHSGANTCVPSVSSKGIMEEDEACGRQYTLKKTTTYTQGVPPSQGDLEYQMSTTARAKRVREAMCPGVSGEDSSLLLATQVEGQATNLQRLAEPSQLLKSAIVHLINYQDDAELATRALPELTKLLNDEDPVVVTKAAMIVNQLSKKEASRRALMGSPQLVAAVVRTMQNTSDLDTARCTTSILHNLSHHREGLLAIFKSGGIPALVRMLSSPVESVLFYAITTLHNLLLYQEGAKMAVRLADGLQKMVPLLNKNNPKFLAITTDCLQLLAYGNQESKLIILANGGPQALVQIMRNYSYEKLLWTTSRVLKVLSVCPSNKPAIVEAGGMQALGKHLTSNSPRLVQNCLWTLRNLSDVATKQEGLESVLKILVNQLSVDDVNVLTCATGTLSNLTCNNSKNKTLVTQNSGVEALIHAILRAGDKDDITEPAVCALRHLTSRHPEAEMAQNSVRLNYGIPAIVKLLNQPNQWPLVKATIGLIRNLALCPANHAPLQEAAVIPRLVQLLVKAHQDAQRHVAAGTQQPYTDGVRMEEIVEGCTGALHILARDPMNRMEIFRLNTIPLFVQLLYSSVENIQRVAAGVLCELAQDKEAADAIDAEGASAPLMELLHSRNEGTATYAAAVLFRISEDKNPDYRKRVSVELTNSLFKHDPAAWEAAQSMIPINEPYGDDMDATYRPMYSSDVPLDPLEMHMDMDGDYPIDTYSDGLRPPYPTADHMLA | binds |
| Serrate RNA effector molecule homolog (protein, UniProt Q9BXP5 1-876) MGDSDDEYDRRRRDKFRRERSDYDRSRERDERRRGDDWNDREWDRGRERRSRGEYRDYDRNRRERFSPPRHELSPPQKRMRRDWDEHSSDPYHSGYEMPYAGGGGGPTYGPPQPWGHPDVHIMQHHVLPIQARLGSIAEIDLGVPPPVMKTFKEFLLSLDDSVDETEAVKRYNDYKLDFRRQQMQDFFLAHKDEEWFRSKYHPDEVGKRRQEARGALQNRLRVFLSLMETGWFDNLLLDIDKADAIVKMLDAAVIKMEGGTENDLRILEQEEEEEQAGKPGEPSKKEEGRAGAGLGDGERKTNDKDEKKEDGKQAENDSSNDDKTKKSEGDGDKEEKKEDSEKEAKKSSKKRNRKHSGDDSFDEGSVSESESESESGQAEEEKEEAEEALKEKEKPKEEEWEKPKDAAGLECKPRPLHKTCSLFMRNIAPNISRAEIISLCKRYPGFMRVALSEPQPERRFFRRGWVTFDRSVNIKEICWNLQNIRLRECELSPGVNRDLTRRVRNINGITQHKQIVRNDIKLAAKLIHTLDDRTQLWASEPGTPPLPTSLPSQNPILKNITDYLIEEVSAEEEELLGSSGGAPPEEPPKEGNPAEINVERDEKLIKVLDKLLLYLRIVHSLDYYNTCEYPNEDEMPNRCGIIHVRGPMPPNRISHGEVLEWQKTFEEKLTPLLSVRESLSEEEAQKMGRKDPEQEVEKFVTSNTQELGKDKWLCPLSGKKFKGPEFVRKHIFNKHAEKIEEVKKEVAFFNNFLTDAKRPALPEIKPAQPPGPAQILPPGLTPGLPYPHQTPQGLMPYGQPRPPILGYGAGAVRPAVPTGGPPYPHAPYGAGRGNYDAFRGQGGYPGKPRNRMVRGDPRAIVEYRDLDAPDDVDFF | binds |
